Patent US20060194856A1, “Use of atii antagonist for the treatment or prevention of metabolic syndrome” (ASTRAZENECA AB, priority 2003, published 2006)

Assay: Clinical study: drug usage and discontinuation
Format: in vivo, patients
Settings: for patients who needed add-on treatment: at the end of study, add-on felodipine (mean 3 mg) to candesartan cilexetil, atenolol (mean 68 mg) to hydrochlorothiazide; for discontinuation rate: one-year study, 197 randomised to candesartan cilexetil, 196 to hydrochlorothiazide

SMILES: CCOc1nc2cccc(C(=O)OC(C)OC(=O)OC3CCCCC3)c2n1Cc1ccc(-c2ccccc2-c2nn[nH]n2)cc1 (stereo not shown) [Candesartan cilexetil, candesartan cilexetil]
- patients who needed add-on treatment: 71%
- discontinuation rate: 8.2%

SMILES: NS(=O)(=O)c1cc2c(cc1Cl)NCNS2(=O)=O [HCTZ, hydrochlorothiazide]
- patients who needed add-on treatment: 84%
- discontinuation rate: 7.1%
